Data reported in paper PMC12485744.
Results are given in words; binding and its absence hold for the method and conditions named. Binding seen in cells or lysates may run through a third protein. A result given as binding can be weak or reduced; the word gives no strength. Where a sequence is shown, tags or fusion partners need not be part of it.

Target: T1, 3XFLAG-Foxh1 (Xenopus (said of the protein in general; species of the cDNA not stated)) (UniProt P70056)
T1 sequence: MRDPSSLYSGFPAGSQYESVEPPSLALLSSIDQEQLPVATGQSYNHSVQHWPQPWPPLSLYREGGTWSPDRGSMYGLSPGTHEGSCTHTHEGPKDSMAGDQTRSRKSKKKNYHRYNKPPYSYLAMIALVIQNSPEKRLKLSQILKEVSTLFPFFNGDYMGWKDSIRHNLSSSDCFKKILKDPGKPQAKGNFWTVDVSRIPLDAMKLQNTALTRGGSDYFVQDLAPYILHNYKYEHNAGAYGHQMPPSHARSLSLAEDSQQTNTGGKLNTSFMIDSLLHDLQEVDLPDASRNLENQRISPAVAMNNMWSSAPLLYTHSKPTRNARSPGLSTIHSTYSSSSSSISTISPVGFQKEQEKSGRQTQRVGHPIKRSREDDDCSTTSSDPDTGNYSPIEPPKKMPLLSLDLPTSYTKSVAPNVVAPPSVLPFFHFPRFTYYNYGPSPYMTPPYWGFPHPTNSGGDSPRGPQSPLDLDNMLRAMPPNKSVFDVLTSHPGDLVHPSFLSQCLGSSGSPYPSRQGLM
Assay: co-IP; HEK293T cells co-transfected with HA-Ezh2 and 3XFLAG-Foxh1, -Foxi2 or -Sox3 for 24 hours; immunoprecipitation with Flag-M2 beads; western blot with anti-FLAG and anti-HA

binding: binds
Substance: HA-Ezh2
